The structures appear in SMILES notation. Some of the results follow. Many values rest on one well or one pass, so single values are uncertain.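 The apoptosis fraction was the count of cleaved-PARP antibody-stained nuclei relative to all DNA-stained nuclei, imaged in 1,536-well plates. Screening doses were set so most cells survived, and baseline and induced cleaved-PARP levels vary greatly across cell lines.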

In this assay the test system is 501Mel. The experiment in a line: cleaved PARP positive nuclei fraction relative to DMSO control; melanoma cells; higher = more apoptosis. The conditions noted are these: library dose: low library concentration; 72 h.
As to `CN(c1ncccc1CNc1nc(Nc2ccc3c(c2)CC(=O)N3)ncc1C(F)(F)F)S(C)(=O)=O` + COc1ccc(-c2ccc3c(N4CCOCC4)nc(N4C[C@@H](C)O[C@@H](C)C4)nc3n2)cc1CO [KU0063794] (first compound 0.08 µM, partner dose 0.02 µM), the “cleaved PARP positive nuclei fraction” value came to 56.4%. Next, `CCN(CC)CCNC(=O)c1c(C)[nH]c(/C=C2\C(=O)Nc3ccc(F)cc32)c1C` [sunitinib] + CCN(CC)CCCCNc1ncc2cc(-c3cc(OC)cc(OC)c3)c(NC(=O)NC(C)(C)C)nc2n1 [PD173074] (first compound 0.4 µM, partner dose 0.1 µM): 99.5%. Next, `Cn1cnc2c(F)c(Nc3ccc(Br)cc3Cl)c(C(=O)NOCCO)cc21` [selumetinib] + O=C(Nc1ccccc1)c1cc([N+](=O)[O-])ccc1Cl [GW9662] (first compound 0.015 µM, partner dose 2 µM): 281%; `C[C@@H](N)c1ccc(C(=O)Nc2ccnc3[nH]ccc23)cc1` + COc1ccc2c(c1)CCC1C2CCC2(C)C(NCCCCCCN3C(=O)C=CC3=O)CCC12 [U73122] (first compound 0.4 µM, partner dose 0.4 µM): 256%; `CC(=O)O[C@@]12CO[C@@H]1C[C@H](O)[C@@]1(C)C(=O)[C@H](O)C3=C(C)[C@@H](OC(=O)[C@H](O)[C@@H](NC(=O)OC(C)(C)C)c4ccccc4)C[C@@](O)([C@@H](OC(=O)c4ccccc4)[C@H]21)C3(C)C` [Docetaxel] + COc1ccc(-c2ccc3c(N4CCOCC4)nc(N4C[C@@H](C)O[C@@H](C)C4)nc3n2)cc1CO [KU0063794] (first compound 0.0001 µM, partner dose 0.02 µM): 48.2%.

Values taken from the supplement of paper PMC4604168 (melanoma cell lines).
